{"source": "PubChem BioAssay AID504842", "about": "(National Center for Advancing Translational Sciences (NCATS), 2011)", "note": "The campaign covered roughly 330,000 compounds. About 100 (0.03%) were called active. The inconclusive results got no clear call from the source; some entries with a clear call stand among them for comparison. Calls follow the shape of the dose curve; as a rule, active = well fitted inhibition curve with a large enough effect; inconclusive = small, poorly fitted or top-dose-only effect; inactive = flat fitted curve, though single readings scatter. Where the call is inconclusive, the potency comes from a doubtful curve fit. Potency is read from the fitted curve at half-maximal effect."}
{"system": "Chaperonin Mm-Cpn (Methanococcus maripaludis)", "experiment": "Inhibitors of TCP-1 ring complex (TRiC) of Methanococcus maripaludis (MmCpn): qHTS; also: nearly all actives have a fitted effect of over 80% in size;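 as to potency: enzyme at 25 nM with ATP substrate at 10 µM during the reaction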", "conditions": "purified Mm-Cpn ATPase, ADP Transcreener TR-FRET", "in_short": "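ATPase turnover read by TR-FRET ADP competition (Eu cryptate antibody/ADP-d2, 665/590 nm): 10uM ATP final, 25nM Mm-CPN final, 30 min 37degC after 10-min compound preincubation, pH 7.4 Tris/KCl/MgCl2/DTT buffer.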"}
{"smiles": "CC1CC(C)(C)NC(=S)N1CCC(=O)N1CCc2ccccc21", "note": "(stereo unspecified)", "Potency": "inactive"}
{"smiles": "CON(C)C(=O)/C=C/CCCCNC(=O)OC(C)(C)C", "Potency": "inconclusive: 112 µM [inhibitor, single point]"}
{"smiles": "O=C(COC(=O)c1ccccc1C(=O)c1ccc(Cl)c([N+](=O)[O-])c1)NC1CC1", "Potency": "inactive"}
{"smiles": "N/C(=N\\OC(=O)c1ccccc1Cl)c1cccc([N+](=O)[O-])c1", "Potency": "inactive"}
{"smiles": "CC(=O)c1ccc2c(c1)C1C=CCC1C(C(=O)O)N2", "note": "(stereo unspecified)", "Potency": "inactive"}
{"smiles": "O=C(CSc1nnc(-c2ccc(Cl)cc2)n1Cc1ccco1)c1cccs1", "Potency": "inconclusive: 100 µM [inhibitor, single point]"}
{"smiles": "O=C1CCCC(=O)C1CS(=O)(=O)c1ccccc1", "Potency": "inconclusive: 100 µM [inhibitor, single point]"}
{"smiles": "Cc1cc(C)c(-c2csc(NC(=O)C3=COCCO3)n2)cc1C", "Potency": "inconclusive: 8.91 µM [inhibitor, single point]"}
{"smiles": "CCOc1ccc(S(=O)(=O)N(C)CCO)cc1-c1nc2c(C(C)(C)C)nn(C)c2c(=O)[nH]1", "Potency": "inconclusive: 14.1 µM [inhibitor, single point]"}
{"smiles": "COc1ccc(CCNCc2ccccc2N2CCCC2)cc1", "Potency": "inconclusive: 22.4 µM [inhibitor, single point]"}
{"smiles": "Cc1ccc(C)c(NC(=O)CS(=O)(=O)c2cccc3nsnc23)c1", "Potency": "inconclusive: 89.1 µM [inhibitor, single point]"}
{"smiles": "COc1ccc([C@H]2CC(=O)C=C(c3ccc(Br)c4ccccc34)C2)cc1", "Potency": "inconclusive: 63.1 µM [inhibitor, partial curve, poor fit]"}
{"smiles": "COc1cccc(-c2nc(-c3ccc4c(c3)-c3ccccc3S4(=O)=O)c(-c3ccccc3)[nH]2)c1OC", "Potency": "inconclusive: 251 µM [inhibitor, partial curve, poor fit]"}
{"smiles": "COCCNC(=O)c1cc2c(=O)n3cccc(C)c3nc2n1C", "Potency": "inactive"}
{"smiles": "Cc1c(Cl)cccc1NC(=O)CSc1nc2ncc(Cl)cc2[nH]1", "Potency": "inconclusive: 224 µM [inhibitor, partial curve, poor fit]"}
{"smiles": "COc1ccc(NC(=O)C2CC(c3ccccc3Cl)=NO2)cc1", "note": "(stereo unspecified)", "Potency": "inactive"}
{"smiles": "CC1(C)CC2CC(C)(CN2CC(=O)C(C#N)c2ccccc2)C1", "note": "(stereo unspecified)", "Potency": "inactive"}
{"smiles": "COC(=O)c1ccc(OCC(=O)Nc2ccsc2C(=O)OC)cc1", "Potency": "inconclusive: 63.1 µM [inhibitor, single point]"}
{"smiles": "COc1ccc(CCNC(=O)c2c([S-])n(-c3ccc(C)cc3)c3cccc[n+]23)cc1", "Potency": "inconclusive: 89.1 µM [inhibitor, partial curve, poor fit]"}
{"smiles": "COc1ccc(C(=O)NC(C)c2nc3ccccc3[nH]2)cc1OC", "note": "(stereo unspecified)", "Potency": "inconclusive: 89.1 µM [inhibitor, single point]"}
{"smiles": "CCN1/C(=C/C=C/C=C/c2sc3ccccc3[n+]2CC)Sc2ccccc21", "Potency": "active: 31.6 µM"}
{"smiles": "CC(/C=C/c1ccc(O)cc1)=N/O", "Potency": "inactive"}
{"smiles": "C[C@H](NC(=O)c1nc[nH]c1C(=O)N[C@@H](C)C(=O)OC(C)(C)C)C(=O)OC(C)(C)C", "Potency": "inconclusive: 100 µM [inhibitor, single point]"}
{"smiles": "COc1cccc(-n2c(COc3ccc(C)cc3)nnc2SCC(=O)O)c1", "Potency": "inconclusive: 22.4 µM [inhibitor, single point]"}
{"smiles": "Cn1nc(C(=O)Nc2cccc(C(F)(F)F)c2)c2ccccc2c1=O", "Potency": "inactive"}
{"smiles": "Cc1oc(-c2ccc(Cl)cc2)nc1CN1CCC(C(=O)NCc2cccs2)CC1", "Potency": "inactive"}
{"smiles": "Clc1ccc2nc(-c3ccc(Br)s3)cn2c1", "Potency": "inconclusive: 100 µM [inhibitor, single point]"}
{"smiles": "COc1ccc(C2/C(=C(\\O)c3ccc4c(c3)OCCO4)C(=O)C(=O)N2CCCn2ccnc2)cc1", "note": "(stereo unspecified)", "Potency": "inactive"}
{"smiles": "COc1ccc2nc(Cl)c(C3CC(c4ccco4)=NN3C(=O)CCC(=O)O)cc2c1", "note": "(stereo unspecified)", "Potency": "inconclusive: 355 µM [inhibitor, partial curve, poor fit]"}
{"smiles": "CN1CCN(C(=O)CCN2C(=O)/C(=C/c3ccc(F)cc3)SC2=S)CC1", "Potency": "inconclusive: 15.8 µM [inhibitor, single point]"}
{"smiles": "COC(=O)c1ccc(NC(=O)c2ccc(NS(=O)(=O)c3cccc4cccnc34)cc2)cc1", "Potency": "inconclusive: 56.2 µM [inhibitor, single point]"}
{"smiles": "OC(Cn1cnnc1)c1ccccc1", "note": "(stereo unspecified)", "Potency": "inactive"}
{"smiles": "C=CCNC(=S)NNc1nc(Nc2ccccc2)nc(N2CCCCC2)n1", "Potency": "inactive"}
{"smiles": "Cc1csc(NC(=O)CSc2nnc(-c3ccc(S(=O)(=O)N4CCCC4)cc3)o2)n1", "Potency": "inactive"}
{"smiles": "COc1ccc2[nH]c(=O)c(COC(=O)c3ccco3)cc2c1", "Potency": "inconclusive: 100 µM [inhibitor, single point]"}
{"smiles": "Nc1ncnc2c1ncn2C1CCCO1", "note": "(stereo unspecified)", "Potency": "inactive"}
{"smiles": "Cc1ccc(S(=O)(=O)Nc2ccc(NC(=O)Nc3ccc(F)cc3F)cc2)cc1", "Potency": "inactive"}
{"smiles": "Cc1cc(N/N=C/c2cccc([N+](=O)[O-])c2)nc(-n2nc(C)cc2C)n1", "Potency": "inactive"}
{"smiles": "Cc1nc2c(cnn2-c2ccccc2Cl)c(=O)n1-c1ccc(C(C)C)cc1", "Potency": "inactive"}
{"smiles": "CN(CCC#N)C(=O)COC(=O)[C@H](Cc1ccccc1)N1C(=O)c2ccccc2C1=O", "Potency": "inconclusive: 17.8 µM [inhibitor, single point]"}
{"smiles": "Cc1cc(-c2ccc(N3C(=O)CCC3=O)c(C)c2)ccc1N1C(=O)CCC1=O", "Potency": "inconclusive: 89.1 µM [inhibitor, single point]"}
{"smiles": "O=C(NCc1ccccn1)C(=O)Nc1cc2c3c(c1)CC(=O)N3CCC2", "Potency": "inconclusive: 112 µM [inhibitor, partial curve, poor fit]"}
{"smiles": "O=C(Nc1ccccc1)/C(=C/c1ccccc1)c1ccccc1", "Potency": "inconclusive: 112 µM [inhibitor, single point]"}
{"smiles": "O=C(Nc1nc(-c2cccs2)cs1)c1cccc(S(=O)(=O)N2CCCCC2)c1", "Potency": "inconclusive: 44.7 µM [inhibitor, single point]"}
{"smiles": "O=C(Nc1ccccc1F)c1ccc2snnc2c1", "Potency": "inconclusive: 79.4 µM [inhibitor, single point]"}
{"smiles": "CCC1CCc2c(sc3nc(SCC(=O)NCc4ccco4)n(-c4ccccc4)c(=O)c23)C1", "note": "(stereo unspecified)", "Potency": "inconclusive: 100 µM [inhibitor, single point]"}
